Test systems include MED28 (human); MEF2B (human); MEIS2 (human); MEIS3 (human); MFGE8 (human); MGC10334 (human); MGC10600 (human); MGC10955 (human); MGC13057 (human); MGC23270 (human); MGC23985 (human); MGC24103 (human); MGC24125 (human); MGC29506 (human); MGRN1 (human); MIER1 (human); MIR16 (human); MLC1 (human).
What all share (assay): protein microarray (ProtoArray v5.0), streptavidin-Alexa Fluor 647
Common to all, as to conditions: 3'-biotin; 20 mM Tris (pH 7.5), 5 mM MgCl2, 100 mM KCl, 0.1% Tween-20, A/T-rich and random oligonucleotide blockers; temperature not stated; high values mean tight binding

Amino acid sequences for entries named in this document (tags omitted). A change or cut given only in a name is not applied to a line headed by its entry.
UniProt P50579: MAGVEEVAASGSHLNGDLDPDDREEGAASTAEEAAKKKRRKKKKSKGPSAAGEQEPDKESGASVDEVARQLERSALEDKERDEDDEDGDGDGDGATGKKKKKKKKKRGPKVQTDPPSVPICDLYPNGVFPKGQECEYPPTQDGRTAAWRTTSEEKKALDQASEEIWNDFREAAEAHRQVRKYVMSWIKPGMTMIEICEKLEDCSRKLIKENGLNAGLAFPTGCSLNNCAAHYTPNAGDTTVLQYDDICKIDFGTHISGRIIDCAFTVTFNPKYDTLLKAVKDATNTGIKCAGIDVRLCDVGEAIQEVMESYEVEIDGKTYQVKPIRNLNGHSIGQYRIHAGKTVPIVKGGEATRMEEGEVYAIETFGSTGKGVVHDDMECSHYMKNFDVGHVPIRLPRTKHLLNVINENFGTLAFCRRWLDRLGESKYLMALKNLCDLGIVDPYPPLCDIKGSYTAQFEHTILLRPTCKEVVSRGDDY
UniProt Q9UBP6: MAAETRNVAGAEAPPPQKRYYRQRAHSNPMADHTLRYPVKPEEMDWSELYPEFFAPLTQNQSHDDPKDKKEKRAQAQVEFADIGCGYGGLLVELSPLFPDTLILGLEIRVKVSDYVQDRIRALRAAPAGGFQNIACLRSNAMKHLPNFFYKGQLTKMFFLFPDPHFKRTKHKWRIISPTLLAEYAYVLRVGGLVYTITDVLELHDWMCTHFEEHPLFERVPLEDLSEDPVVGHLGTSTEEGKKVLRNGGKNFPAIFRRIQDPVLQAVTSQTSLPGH

For the next assay, the target named is METAP2 (UniProt P50579).
The target of a further assay is METTL1 (UniProt Q9UBP6).

“And” between values parts separate entries of the source, which are not always exact repeats. Equal values may be shown once. The list shows a part of the results. For some assays here: The exact form of the protein is not confirmed.

For “GGGGACAGGGGTATGGGGAGGGG [G4-3 biotinylated (CtG)]”, the binding signal in the assay with MED28 (human) is -0.335 z-score; with MEF2B (human), -0.326 z-score; in the assay with MEIS2 (human) it was -0.34 z-score and -0.339 z-score; in the assay with MEIS3 (human), -0.336 z-score; with METAP2, 8.14 z-score; in the assay with METTL1, 3.98 z-score. In addition, the binding signal in the assay on MFGE8 (human) was -0.312 z-score; in the assay on MGC10334 (human), -0.331 z-score; in the assay on MGC10600 (human), -0.328 z-score; in the assay on MGC10955 (human), -0.306 z-score; in the assay with MGC13057 (human) it was -0.33 z-score; in the assay on MGC23270 (human), -0.309 z-score. For the same sequence, the binding signal in the assay with MGC23985 (human) is -0.33 z-score; with MGC24103 (human), -0.331 z-score; in the assay on MGC24125 (human), -0.337 z-score; in the assay with MGC29506 (human) it was -0.306 z-score; in the assay on MGRN1 (human), -0.335 z-score; in the assay with MIER1 (human), -0.284 z-score. The binding signal was -0.322 z-score in the assay with MIR16 (human) and -0.325 z-score in the assay with MLC1 (human).
